Data on 1 molecule can be found in PMC7938805, “Biophysical and biochemical properties of Deup1 self-assemblies: a potential driver for deuterosome formation during multiciliogenesis” (Biology Open, 2021).

No constants are given. Whether binding was seen depends on the method and setting.

For this test, the target named is mScarlet I-Deup1 C-terminus fragment (467-601 a.a.) (mouse) (UniProt Q7M6Y5). Put plainly: fluorescence microscopy of assemblies of purified protein; purified fluorescent protein (100 nM where stated) in 50 mM Tris pH 7.5, 150 mM NaCl, 1.5% glycerol with PEG8000 (up to 6%) or BSA 300 mg/ml as crowding agent, RT 10 min, confocal imaging; both purified.

B1: mScarlet I-Deup1 C-terminus fragment (467-601 a.a.) (domain or fragment, UniProt Q7M6Y5-1 467-601)
chain: SDLAKLHGNGKAAWPNQSSYGEAGAYVFQSQLKTETSGDRISQDCELNRSPTPLSPLPFQTKEMASPLVGDNEVLALSPPDISFRASLAAQHFLMEEERRAKELEKLLNTHIDELQRHTEFTLNKYTKLKQSRHI
As to B1, the binding entry was “no binding”.
